The list does not hold the whole screen: it is rich in T/C values a quarter to a half above the control, in often repeated tests (any T/C) and in doses without a T/C. Other doses and runs of a compound stand elsewhere. T/C gives the treated animals as a percentage of the vehicle group. Some doses have a count of surviving animals in place of a T/C: the source files T/C as zero there, which appears to mark a toxic dose or a test without result, not a measured value. Some doses without a T/C left all or most animals alive at the check, yet need not have been tolerated: survival well below the control is almost never listed, so the zero probably covers shortened survival too. Survivors were counted at the toxicity check, usually on the fifth day, unless a day is given; later deaths do not show. Schedules are NCI's codes, read here as Q, the interval in days (D) or hours (H), X, the number of doses. For survival time, the PubChem record calls one and a half times the control and up active, and a quarter to a half above the control has no call in these data; cut-offs in other NCI protocols can differ. Some T/C values carry the count of animals alive at the toxicity check (mostly the fifth day); without a count, all were alive then. Some entries were tested several times; the results are listed from low to high.
Tested on: P388 leukemia ip, CD2F1 mice, survival T/C
Experiment: NCI In Vivo Anticancer Drug Screen. Data for tumor model P388 Leukemia (intraperitoneal) in CD2F1 (CDF1) mice
Settings: T/C endpoint: median survival time, higher T/C = longer survival
[1] = dose: 200.0 mg/kg/injection, schedule: Q01DX009 (ip), vehicle: saline
[2] = dose: 200.0 mg/kg/injection, schedule: Q01DX005 (ip), vehicle: Klucel (hydroxypropylcellulose) (HPC)
[3] = dose: 100.0 mg/kg/injection, schedule: Q01DX005 (ip), vehicle: Klucel (hydroxypropylcellulose) (HPC)
[4] = dose: 100.0 mg/kg/injection, schedule: Q01DX005 (ip), vehicle: saline
[5] = dose: 200.0 mg/kg/injection, schedule: Q01DX005 (ip), vehicle: saline
[6] = dose: 100.0 mg/kg/injection, schedule: Q01DX009 (ip), vehicle: Klucel (hydroxypropylcellulose) (HPC)
[7] = dose: 200.0 mg/kg/injection, schedule: Q01DX009 (ip), vehicle: Klucel (hydroxypropylcellulose) (HPC)
[8] = dose: 50.0 mg/kg/injection, schedule: Q01DX009 (ip), vehicle: Klucel (hydroxypropylcellulose) (HPC)

CC1=CC(=O)C(O)C2(C)C1CC1OC(=O)C(OC(=O)CC(C)(C)O)C3C(C)C(O)C4(O)OCC13C42 (centres undefined)
T/C (dose: 1.0 mg/kg/injection, schedule: Q01DX009 (ip), vehicle: saline + alcohol): 125 % of control | T/C (dose: 2.0 mg/kg/injection, schedule: Q01DX009 (ip), vehicle: saline + alcohol): 130 % of control | T/C (dose: 4.0 mg/kg/injection, schedule: Q01DX009 (ip), vehicle: saline + alcohol): 134 and 137 % of control [5 of 6 alive] | survivor count (dose: 8.0 mg/kg/injection, schedule: Q01DX009 (ip), vehicle: saline + alcohol): 1 of 6

CC12CC3OC(=O)C1COC14OC5(C2C1=O)C(O)(CCC1C4CC(O)C2(O)CC=CC(=O)C12C)C(=O)OC35C (centres undefined)
survivor count (dose: 96.0 mg/kg/injection, schedule: Q01DX009 (ip), vehicle: Klucel (hydroxypropylcellulose) (HPC)): 3 of 6

O=NN(Cc1ccc(Cl)cc1)C(C(=O)O)c1ccccc1 (centres undefined)
survivor count (dose: 240.0 mg/kg/injection, schedule: Q01DX005 (ip), vehicle: Klucel + Tween-80): 6 of 6

C#CCN(C)Cc1cc(OC)c(OC)c(OC)c1
survivor count (dose: 25.0 mg/kg/injection, schedule: Q01DX009 (ip), vehicle: saline): 6 of 6 | survivor count [1]: 6 of 6

CC1(C)OC2C(COC(=O)c3ccccc3)OC(n3cnc4c(=NC(=O)c5ccccc5)n(C(=O)c5ccccc5)cnc43)C2O1 (centres undefined)
survivor count [2]: 6 of 6

[Cl][Ge]([c]1ccccc1)[c]1ccccc1.[Cl][Ge]([c]1ccccc1)[c]1ccccc1
survivor count (dose: 50.0 mg/kg/injection, schedule: Q01DX005 (ip), vehicle: Klucel (hydroxypropylcellulose) (HPC)): 0 of 6 | survivor count [3]: 0 of 6 | survivor count [2]: 0 of 6

C=C1CCN(c2ccc(F)cc2)C1=O
T/C (dose: 16.0 mg/kg/injection, schedule: Q01DX009 (ip), vehicle: saline + alcohol): 125 % of control

CC(C)C1=CC23CCC4C(C)(C(N)=O)CCCC4(C)C2CC1C1C(=O)OC(=O)C13 (centres undefined)
survivor count (dose: 200.0 mg/kg/injection, schedule: Q01DX001 (ip), vehicle: saline with Tween-80): 2 of 6 | survivor count (dose: 400.0 mg/kg/injection, schedule: Q01DX001 (ip), vehicle: saline with Tween-80): 0 of 6

O=C1C(CO)=C[C@H](O)[C@H]2O[C@@H]12
T/C (dose: 12.5 mg/kg/injection, schedule: Q01DX009 (ip), vehicle: saline + alcohol): 130 % of control | survivor count (dose: 50.0 mg/kg/injection, schedule: Q01DX009 (ip), vehicle: saline + alcohol): 0 of 6 | survivor count (dose: 100.0 mg/kg/injection, schedule: Q01DX009 (ip), vehicle: saline + alcohol): 0 of 6

CC1CCC(C(C)(C)c2ccccc2)CC1OC(=O)/C=C/CC(C)(C)CC=C1C2CCC1N(C(=O)OCC(Cl)(Cl)Cl)N2C(=O)OCC(Cl)(Cl)Cl (centres undefined)
survivor count [3]: 6 of 6

CCN(CC)CCCNC(=O)c1noc2cc([N+](=O)[O-])ccc12
survivor count (dose: 50.0 mg/kg/injection, schedule: Q01DX005 (ip), vehicle: saline): 3 of 5 | survivor count [4]: 0 of 5 | survivor count [5]: 0 of 5

Cc1cccc(NC(=O)CS)n1
survivor count [6]: 6 of 6 | survivor count [7]: 0 of 6

N#Cc1c(=O)n(CCO)nc2c3ccccc3c3ccccc3c12
survivor count (dose: 400.0 mg/kg/injection, schedule: Q04DX002 (ip), vehicle: saline with Tween-80): 6 of 6

CCCCCCCCCCCCCCCCCCOCC(O)CN(CCO)CCO (centres undefined)
survivor count [8]: 6 of 6 | survivor count [6]: 2 of 6 | survivor count [7]: 0 of 6

Cc1c(C)c(C)c(C(=O)c2ccccc2C(=O)NCCSC(C)(C)C)c(C)c1C
survivor count (dose: 120.0 mg/kg/injection, schedule: Q01DX005 (ip), vehicle: Klucel (hydroxypropylcellulose) (HPC)): 6 of 6

CCC12CN3CCc4c([nH]c5ccccc45)C(C(=O)OC)(c4cc5c(cc4OC)N(C)C4C(O)(C(=O)OC)C(OC(C)=O)C6(CC)C=CCN7CCC54C76)CC(C3=O)C1O2 (centres undefined)
T/C (dose: 4.0 mg/kg/injection, schedule: Q01DX001 (ip), vehicle: water): 125 % of control | T/C (dose: 8.0 mg/kg/injection, schedule: Q01DX001 (ip), vehicle: water): 131 and 133 % of control | T/C (dose: 16.0 mg/kg/injection, schedule: Q01DX001 (ip), vehicle: water): 144 and 149 % of control | T/C (dose: 32.0 mg/kg/injection, schedule: Q01DX001 (ip), vehicle: water): 148 % of control | survivor count (dose: 64.0 mg/kg/injection, schedule: Q01DX001 (ip), vehicle: water): 1 of 6

COc1cccc2c1C(=O)c1c(OC)c3c(c(OC)c1C2=O)C[C@@](O)(C(C)=O)C[C@@H]3OC1CC(N)C(O)C(C)O1 (some centres undefined)
T/C (dose: 2.0 mg/kg/injection, schedule: Q01DX009 (ip), vehicle: water): 125 % of control | T/C (dose: 32.0 mg/kg/injection, schedule: Q01DX009 (ip), vehicle: water): 127 and 130 % of control | T/C (dose: 64.0 mg/kg/injection, schedule: Q01DX009 (ip), vehicle: water): 143 % of control

COc1ccc(NC(=O)Oc2ccc3c(C)cc(=O)oc3c2)c(OC)c1
T/C (dose: 50.0 mg/kg/injection, schedule: Q01DX009 (ip), vehicle: saline with Tween-80): 132 % of control

Fc1ccc(NC(=S)NC2CC2)c(F)c1
survivor count (dose: 200.0 mg/kg/injection, schedule: Q01DX009 (ip), vehicle: saline with Tween-80): 0 of 6

CC(C)(C)CC(C)(C)NC(=S)NC1C2CC3CC(C2)CC1C3 (centres undefined)
survivor count [7]: 6 of 6

CC(=O)C[n+]1ccccc1Oc1ccccc1
survivor count [4]: 1 of 5

CCCCCCCCCCCCCCCCCC(=O)NC(Cc1ccc(N(CCCl)CCCl)cc1)C(=O)O (centres undefined)
T/C (dose: 1.88 mg/kg/injection, schedule: Q03HX008 (ip), vehicle: saline): 130 % of control | survivor count (dose: 30.0 mg/kg/injection, schedule: Q03HX008 (ip), vehicle: saline): 9 of 10 | survivor count (dose: 60.0 mg/kg/injection, schedule: Q03HX008 (ip), vehicle: saline): 0 of 10

COC(OC)C(C)(C)NC1CCCCC1
survivor count [1]: 0 of 6

CC1(C)N=C(N)N=C(N)N1c1ccc(CCCCc2cccc(S(=O)(=O)F)c2)c(Cl)c1
T/C (dose: 0.38 mg/kg/injection, schedule: Q01DX009 (ip), vehicle: saline with Tween-80): 125 % of control | T/C (dose: 2.2 mg/kg/injection, schedule: Q01DX009 (ip), vehicle: saline with Tween-80): 145 % of control | T/C (dose: 5.5 mg/kg/injection, schedule: Q01DX009 (ip), vehicle: saline with Tween-80): 145 % of control | survivor count (dose: 27.0 mg/kg/injection, schedule: Q01DX009 (ip), vehicle: saline): 5 of 6 | survivor count (dose: 40.0 mg/kg/injection, schedule: Q01DX009 (ip), vehicle: saline): 0 of 6

C[n+]1ccccc1-c1ccc[n+](CCCCC[n+]2cccc(-c3cccc[n+]3C)c2)c1
survivor count [5]: 0 of 6

CCOC(=O)Nc1cc(NC(C)/C(=N/O)c2ccccc2)c([N+](=O)[O-])c(N)n1 (centres undefined)
T/C (dose: 30.0 mg/kg/injection, schedule: Q01DX005 (ip), vehicle: Klucel (hydroxypropylcellulose) (HPC)): 145 % of control | survivor count (dose: 480.0 mg/kg/injection, schedule: Q01DX005 (ip), vehicle: Klucel (hydroxypropylcellulose) (HPC)): 4 of 6

COc1ccc(C2=NCCc3cc(OC)c(OC)cc32)cc1OC
survivor count (dose: 200.0 mg/kg/injection, schedule: Q01DX009 (ip), vehicle: water): 0 of 6

CC(=O)NC1=C(Cl)C(=O)c2ccccc2C1=O
survivor count (dose: 12.5 mg/kg/injection, schedule: Q01DX009 (ip), vehicle: Klucel (hydroxypropylcellulose) (HPC)): 6 of 6 | survivor count (dose: 25.0 mg/kg/injection, schedule: Q01DX009 (ip), vehicle: Klucel (hydroxypropylcellulose) (HPC)): 6 of 6 | survivor count [8]: 0 of 6

CCOC(=O)C(=CNc1cc(C)c2[nH]c3ccc(Br)cc3c2c1C)C(=O)OCC
survivor count (dose: 60.0 mg/kg/injection, schedule: Q01DX005 (ip), vehicle: saline with Tween-80): 6 of 6 | survivor count (dose: 120.0 mg/kg/injection, schedule: Q01DX005 (ip), vehicle: saline with Tween-80): 6 of 6

— PubChem BioAssay AID330 (DTP/NCI, 2004)
